Data on four compounds can be found in the odorant receptor screen of Mainland et al. (2015).

Values joined by “and” are separate entries in the source; they are usually repeats but may differ in a detail not shown here. Identical values can stand only once. Some of the results follow. Single wells; the ratio to wells without odorant was worked out here, and repeats agree poorly.

Assay in all cases: odorant receptor activation (CRE luciferase / Renilla) (fold of no-odor wells); higher = more activation
Details in all cases: 100 µM

In experiment [1] the test system is OR2A2 F280L clone 1541.
Experiment [2] deals with OR2A2 clone 1476.
Experiment [3] has as its system OR2A25 clone 1387.
For experiment [4], the system named is OR2A4 clone 1386.
In experiment [5] the test system is OR2A42 clone 1565.
Experiment [6] concerns OR2A5 clone 1437.
For experiment [7], the system named is OR2A7 clone 1077.
Experiment [8] has as its system OR2A7 clone 1543.
In experiment [9] the test system is OR2AE1 I77T clone 1079.
The test system of experiment [10] is OR2AG1 clone 1112.
Experiment [11] deals with OR2AG2 Y28C/R54P/R299G clone 1486.
Experiment [12] deals with OR2AJ1 M1V clone 1448.
The test system of experiment [13] is OR2AK2 V188M clone 1415.
Experiment [14] deals with OR2AP1 clone 1256.
In experiment [15] the test system is OR2AT4 clone 1522.
Experiment [16] concerns OR2B11 clone 1418.
Experiment [17] concerns OR2B2 clone 1333.
Experiment [18] relates to OR2B2 clone 1544.
The test system of experiment [19] is OR2B3 clone 1063.
Experiment [20] relates to OR2B6 clone 1436.

Take `CCCCOC(C)=O` [butyl acetate]: the odorant receptor activation in experiment [1] came to 0.823; in [2], 1.15; in experiment [3] it was 0.257; in experiment [4] it was 0.182; in experiment [5], 0.723; in experiment [6] it was 0.312. In addition, the odorant receptor activation in [7] turned out to be 0.95; in experiment [8] it was 0.751; in experiment [9], 1.2; in [10] it was 1.04; in experiment [11] it was 0.74; in [12], 0.139. In addition, the odorant receptor activation in experiment [13] amounted to 0.225; in experiment [14], 0.809; in experiment [15] it was 1.16; in [16], 0.298; in experiment [17], 0.762; in [18], 0.934. For the same compound, the values for the odorant receptor activation in experiment [19] and in [20] were 1.26 and 0.23, respectively.

With `CCC(C)=O` [2-butanone], the odorant receptor activation in experiment [1] was 1.2; in experiment [2] it was 1.05; in experiment [3], 0.967; in experiment [4], 1.11; in experiment [5] it was 0.534; in experiment [6], 0.648. The odorant receptor activation in experiment [7] stood at 3.8; in experiment [8], 1.17; in [9] it was 22.8; in experiment [10], 7.53; in experiment [11] it was 1.02; in experiment [12] it was 0.965. Moreover, the odorant receptor activation in experiment [13] worked out at 1.19; in experiment [14], 1.39; in [15], 1.25; in experiment [16], 1.51; in [17], 0.876; in experiment [18] it was 1.14. Moreover, the odorant receptor activation in [19] stood at 7.1; in experiment [20], 1.23.

Regarding `CS` [methanethiol], the odorant receptor activation in [1] worked out at 0.922; in experiment [2], 1.03; in experiment [3] it was 1.22; in [4] it was 0.815; in experiment [5], 1.05; in [6] it was 1.01. The odorant receptor activation in experiment [7] came to 0.847; in experiment [8], 0.7; in experiment [9] it was 0.994; in [10], 1.12; in experiment [11], 0.821; in [12] it was 0.894. The odorant receptor activation in experiment [13] turned out to be 0.794; in experiment [14], 0.692; in experiment [15] it was 0.917; in experiment [16] it was 0.839; in experiment [17], 0.84; in experiment [18] it was 0.995. Besides, the odorant receptor activation stood at 1.04 in experiment [19] and 0.91 in [20].

Consider `CCOc1cc(C=O)ccc1O` [ethyl vanillin], for which the odorant receptor activation in [1] is 1.15; in [2], 1.03 and 1.3 and 1.52; in experiment [3], 0.999 and 1.12; in experiment [4], 0.987 and 1.13; in [5] it was 0.722; in experiment [6] it was 1.24 and 1.4. Moreover, the odorant receptor activation in experiment [7] is 1.02; in experiment [8] it was 1.2; in experiment [9], 1.51 and 1.15; in [10] it was 0.752 and 1.1; in experiment [11] it was 1.19 and 2.44 and 1.28; in experiment [12], 1.34 and 1.56 and 1.32. Moreover, the odorant receptor activation in [13] is 1.11 and 1.2; in [14], 1.85 and 1; in [15] it was 1.32 and 2.54 and 1.52; in [16], 0.748 and 1.04; in [17], 2.16 and 1.26; in experiment [18], 1.4. Besides, the odorant receptor activation was 1.51 and 0.966 in [19]; 1.01 and 1.63 in experiment [20].
